Laboratory results published in publication PMC12323259.
These are yes or no findings as the source states them, for the method shown. In cells and extracts the contact can be indirect. Some binding calls cover weakened binding; strength is not graded here.

The chains behind the UniProt entries cited, without tags or fusion partners.
UniProt Q06609: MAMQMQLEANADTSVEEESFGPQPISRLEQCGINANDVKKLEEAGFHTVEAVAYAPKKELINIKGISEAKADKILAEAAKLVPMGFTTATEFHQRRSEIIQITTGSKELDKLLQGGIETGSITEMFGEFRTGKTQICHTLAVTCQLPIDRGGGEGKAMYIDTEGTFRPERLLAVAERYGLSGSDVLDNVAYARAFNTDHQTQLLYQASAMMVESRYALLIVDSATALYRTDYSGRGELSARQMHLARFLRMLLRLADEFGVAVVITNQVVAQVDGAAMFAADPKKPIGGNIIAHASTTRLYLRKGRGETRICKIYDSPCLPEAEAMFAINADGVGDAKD

Target: myc-tagged RAD51 (human) (UniProt Q06609)
Test: co-IP; lysate of MDA-MB-231 and MDA-MB-453 cells transfected with pcDNA3.1_myc_RAD51, treated with 0.1 µM IVA and/or 5 µM OLA for 48 h; anti-myc or anti-mouse IgG at 4 °C overnight, Dynabeads; binding buffer Tris-Cl pH 7.4, 100 mM NaCl, 0.5% NP-40, 0.5% Triton X-100, 10% glycerol; western blot

B1: FBXO24 (protein, UniProt O75426 1-580)
chain: MGEKAVPLLRRRRVKRSCPSCGSELGVEEKRGKGNPISIQLFPPELVEHIISFLPVRDLVALGQTCRYFHEVCDGEGVWRRICRRLSPRLQDQGSGVRPWKRAAILNYTKGLYFQAFGGRRRCLSKSVAPLLAHGYRRFLPTKDHVFILDYVGTLFFLKNALVSTLGQMQWKRACRYVVLCRGAKDFASDPRCDTVYRKYLYVLATREPQEVVGTTSSRACDCVEVYLQSSGQRVFKMTFHHSMTFKQIVLVGQETQRALLLLTEEGKIYSLVVNETQLDQPRSYTVQLALRKVSHYLPHLRVACMTSNQSSTLYVTDQGGVYFEVHTPGVYRDLFGTLQAFDPLDQQMPLALSLPAKILFCALGYNHLGLVDEFGRIFMQGNNRYGQLGTGDKMDRGEPTQVCYLQRPITLWCGLNHSLVLSQSSEFSKELLGCGCGAGGRLPGWPKGSASFVKLQVKVPLCACALCATRECLYILSSHDIEQHAPYRHLPASRVVGTPEPSLGARAPQDPGGMAQACEEYLSQIHSCQTLQDRTEKMKEIVGWMPLMAAQKDFFWEALDMLQRAEGGGGGVGPPAPET
With B1 the binding was “binds”.
